According to patent US20020037840A1 (GENETICS INSTITUTE, published 2002):
No constants are given. Whether binding was seen depends on the method and setting. In cells and extracts the contact can be indirect. Some results given as binding are weak or reduced against the parent protein; the word gives no strength. Where a sequence is shown, tags or fusion partners need not be part of it.

B1: full length SLIC-1 as a fusion protein with a T7 protein tag (protein)
chain: MASMTGGQQMGMASPEHPGSPGCMGPITQCTARTQQEAPATGPDLPHPGPDGHLDTHSGLSSNSSMTTRELQQYWQNQKCRWKHVKLLFEIASARIEERKVSKFVVYQIIVIQTGSFDNNKAVLERRYSDFAKLQKALLKTFREEIEDVEFPRKHLTGNFAEEMICERRRALQEYLGLLYAIRCVRRSREFLDFLTRPELREAFGCLRAGQYPRALELLLRVLPLQEKLTAHCPAAAVPALCAVLLCHRDLDRPAEAFAAGERALQRLQAREGHRYYAPLLDAMVRLAYALGKDFVTLQERLEESQLRRPTPRGITLKELTVREYLH
B2: T7-tagged polypeptide comprising amino acid residues 1-226 of SLIC-1 (protein)
chain: MASMTGGQQMGMASPEHPGSPGCMGPITQCTARTQQEAPATGPDLPHPGPDGHLDTHSGLSSNSSMTTRELQQYWQNQKCRWKHVKLLFEIASARIEERKVSKFVVYQIIVIQTGSFDNNKAVLERRYSDFAKLQKALLKTFREEIEDVEFPRKHLTGNFAEEMICERRRALQEYLGLLYAIRCVRRSREFLDFLTRPELREAFGCLRAGQYPRALELLLRVLPLQEKLTAHCPAAA

Experiments:
[1] = biological target: T1, full length form of human PSGL-1 (human, UniProt Q14242 42-412); experiment: co-immunoprecipitation from COS cell lysates with anti-PSGL-1 antibody 2G3, anti-T7 Western blot
T1 construct: whole, on cells; Expressed whole in COS cells and precipitated from the cell lysate with the biotinylated anti-PSGL-1 antibody 2G3; also called P-selectin glycoprotein ligand; CD162
T1 sequence (looked up): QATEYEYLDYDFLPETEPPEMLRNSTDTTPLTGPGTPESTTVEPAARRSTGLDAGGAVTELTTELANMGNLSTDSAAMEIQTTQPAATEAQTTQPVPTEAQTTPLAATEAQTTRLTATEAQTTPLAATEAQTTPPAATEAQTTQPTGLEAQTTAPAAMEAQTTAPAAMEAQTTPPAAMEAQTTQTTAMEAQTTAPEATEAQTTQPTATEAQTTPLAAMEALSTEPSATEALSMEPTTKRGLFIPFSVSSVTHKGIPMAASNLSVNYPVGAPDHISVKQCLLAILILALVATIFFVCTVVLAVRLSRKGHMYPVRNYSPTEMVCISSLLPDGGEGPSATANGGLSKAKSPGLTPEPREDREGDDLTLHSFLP
Procedure: COS cells were transfected with T7-tagged forms of SLIC-1 as described in Example 3. Vector pMT-PL85A (Genetics Institute) was included in a subset of samples to transiently overexpress the full length form of human PSGL-1. Cell lysis was carried out as described above in 900 μL/dish of lysis buffer consisting of 20 mM Tris-HCl, pH 7.4, 137 mM NaCl, 0.05% Triton-X and protease inhibitors (Hildt, E and Oess, S J 1999 J. Exp. Med. 189(11): 1707-1714). A small volume of cleared cell lysate was used for Western Blotting to detect overexpressed protein in the whole cell lysate and for spectrophotometric measurement of the protein content. A volume of 300 μL of each lysate was used for co-immunoprecipitation studies with either 2.5 μg of biotinylated monoclonal mouse anti-PSGL-1 antibody (antibody 2G3, Genetics Institute) or a biotinylated control antibody (SIGMA). The samples were agitated at 4° C. for 5 hours, and immuncomplexes were precipitated with streptavidin agarose beads (Pierce) under the same conditions for 1 hour. […] The presence of T7-tagged SLIC-1 protein in the samples was detected by Western blot analysis using an anti-T7 Horse Radish Peroxidase LumiBlot Kit (Novagen) according to the manufacturer's instructions.

[2] = biological target: T1, full length form of human PSGL-1; experiment: co-immunoprecipitation from COS cell lysates, Western blot

| Binder | binding [1] | binding [2] |
| --- | --- | --- |
| B1 | binds | binds |
| B2 | binds |  |
